Assay [1] deals with MORF4L1 (mortality factor 4-like 1) (human) (UniProt Q9UBU8). In words: cross-linking; XL-MS: freshly purified SIN3B complex at 1.7 μM with DSSO, on ice for 10 min, quenched with Tris pH 8, trypsin digest, LC-MS; both purified.
Assay [2] shares this target. In words: cryo-EM structure; apo SIN3B complex; SIN3B^FL sample (full-length PHF12, 3.4 Å), SIN3B complex sample (PHF12 1-502, 3.7 Å) and SIN3B^core map (2.8 Å); subunits co-expressed with RbBP7 and co-purified, GraFix (glutaraldehyde) treated; both purified.

By UniProt entry, the sequences of proteins in these tests, tags left out. Where a name states a change or a piece, a line headed by the entry shows the natural chain unless it says otherwise.
UniProt Q9UBU8: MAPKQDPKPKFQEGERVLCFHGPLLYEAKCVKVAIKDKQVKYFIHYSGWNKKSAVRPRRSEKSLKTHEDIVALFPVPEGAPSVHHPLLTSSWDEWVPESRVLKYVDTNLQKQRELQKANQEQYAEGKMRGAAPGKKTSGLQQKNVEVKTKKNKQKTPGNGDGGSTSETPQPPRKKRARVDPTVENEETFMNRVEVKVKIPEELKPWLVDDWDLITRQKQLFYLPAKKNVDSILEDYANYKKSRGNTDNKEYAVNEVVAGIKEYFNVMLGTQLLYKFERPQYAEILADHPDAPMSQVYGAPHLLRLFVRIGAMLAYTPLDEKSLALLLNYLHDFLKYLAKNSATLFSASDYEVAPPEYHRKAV
UniProt Q96QT6: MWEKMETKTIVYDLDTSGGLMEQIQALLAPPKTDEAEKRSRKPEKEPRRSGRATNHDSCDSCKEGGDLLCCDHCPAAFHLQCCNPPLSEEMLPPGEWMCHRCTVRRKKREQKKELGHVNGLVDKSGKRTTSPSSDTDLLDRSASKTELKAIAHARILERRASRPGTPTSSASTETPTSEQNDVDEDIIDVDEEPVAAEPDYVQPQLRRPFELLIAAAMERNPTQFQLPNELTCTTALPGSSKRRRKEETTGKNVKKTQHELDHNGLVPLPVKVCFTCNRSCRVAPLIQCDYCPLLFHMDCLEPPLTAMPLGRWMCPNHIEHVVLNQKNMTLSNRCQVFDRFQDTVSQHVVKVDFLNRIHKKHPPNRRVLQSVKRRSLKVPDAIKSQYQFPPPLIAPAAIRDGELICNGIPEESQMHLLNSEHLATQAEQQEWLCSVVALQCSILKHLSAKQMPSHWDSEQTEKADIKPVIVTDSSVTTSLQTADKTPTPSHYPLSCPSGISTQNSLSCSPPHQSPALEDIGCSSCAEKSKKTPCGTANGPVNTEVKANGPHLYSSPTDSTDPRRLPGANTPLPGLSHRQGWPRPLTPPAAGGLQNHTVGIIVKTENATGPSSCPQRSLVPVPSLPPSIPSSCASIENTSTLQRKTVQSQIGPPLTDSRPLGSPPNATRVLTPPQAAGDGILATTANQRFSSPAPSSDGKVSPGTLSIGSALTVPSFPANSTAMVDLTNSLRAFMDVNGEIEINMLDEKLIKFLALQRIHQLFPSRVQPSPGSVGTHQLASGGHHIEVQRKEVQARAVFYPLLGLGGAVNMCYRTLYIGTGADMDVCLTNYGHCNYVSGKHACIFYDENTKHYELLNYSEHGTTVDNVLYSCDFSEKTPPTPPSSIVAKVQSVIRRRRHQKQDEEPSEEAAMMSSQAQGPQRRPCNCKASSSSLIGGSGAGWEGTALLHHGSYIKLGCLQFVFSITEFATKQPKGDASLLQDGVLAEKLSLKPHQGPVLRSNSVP

Consider two substances from PMC10156912.

No constants are given. Whether binding was seen depends on the method and setting. Some entries that bind do so weakly or less than the wild type.

Consider “PHF12^ΔC-terminus (residues 1-502) (from UniProt Q96QT6 1-502) (domain or fragment)”, for which the binding result in assay [1] and in assay [2] was “binds” throughout. For “PHF12 (full-length) (from UniProt Q96QT6 1-1004)”, in assay [2], the binding result is “binds”.
